We go through one molecule from doi:10.1101/2025.09.05.674519.

These are yes or no findings as the source states them, for the method shown. Some binding calls cover weakened binding; strength is not graded here.

The target in the experiment is ULK2 kinase domain (1-276) (UniProt Q8IYT8). Briefly: crystal structure.

B1: ULK2 kinase domain (1-276) (domain or fragment, UniProt Q8IYT8 1-276)
chain: MEVVGDFEYSKRDLVGHGAFAVVFRGRHRQKTDWEVAIKSINKKNLSKSQILLGKEIKILKELQHENIVALYDVQELPNSVFLVMEYCNGGDLADYLQAKGTLSEDTIRVFLHQIAAAMRILHSKGIIHRDLKPQNILLSYANRRKSSVSGIRIKIADFGFARYLHSNMMAATLCGSPMYMAPEVIMSQHYDAKADLWSIGTVIYQCLVGKPPFQANSPQDLRMFYEKNRSLMPSIPRETSPYLANLLLGLLQRNQKDRMDFEAFFSHPFLEQGPV
As to B1, the binding entry is listed as “binds”.
